Data reported in patent publication US20190062846A1, “COMPOSITIONS AND METHODS FOR SCREENING PEDIATRIC GLIOMAS AND METHODS OF TREATMENT THEREOF” (DANA-FARBER CANCER INSTITUTE, INC., priority 2016, published 2019).
At least one compound was matched to its structure with a doubt left.

Assays:
Assay type in all cases: cell-based
[1] = tested on: mouse neural stem cells engineered to express GFP; assay: Percentage viability of control mouse neural stem cells after increased doses of inhibitor; details: mNSCs expressing GFP; concentration of 0.1-0.5 μM; FIG. 44
[2] = tested on: mouse neural stem cells engineered to express MYB-QKI6 (short variant); assay: Percentage viability of mouse neural stem cells after increased doses of inhibitor; details: mNSCs expressing MYB-QKI6 (short variant); concentration of 0.1-0.5 μM; FIG. 44
Procedure: (§1) FIGS. 42A-D are a set of graphs showing percentage viability of mouse neural stem cells expressing GFP (FIG. 42A), truncated MYB (FIG. 42B), MYB-QKI5 (short variant) (FIG. 42C), and MYB-QKI6 (short variant) (FIG. 42D) after the treatment of increased doses (0, 0.05, 0.1, 0.3, 0.5, and 1 μM) of JQ1, THZ1 (“CDK7i”), and DMSO as negative control.
(§2) FIG. 44 is a graph showing the percentage viability of mouse neural stem cells expressing GFP (“GFP”), truncated MYB (“MYBtr”), MYB-QKI5 (short variant) (“MYBQKI5”), and MYB-QKI6 (short variant) (“MYBQKI6”) after the treatment of increased doses (0, 0.05, 0.1, 0.3, 0.5, and 1 μM) of dasatinib or DMSO as negative control.
(§3) Modifiers of the MYB pathway and key upstream and downstream effectors were examined for their ability to inhibit growth and induce death of cells expressing MYB-QKI fusion protein. […] Thus, cells expressing truncated MYB or MYB-QKI were specifically sensitive to inhibition of BET by JQ1.
(§4) 1,000 cells/well were plated in 96-well plates, with five replicates. Cell viability was measured by assessing ATP content using CellTiter-Glo (Promega). Means±s.e.m. were calculated.

[3] = tested on: mouse neural stem cells engineered to express MYB-QKI5 (short variant); assay: as above; details: mNSCs expressing MYB-QKI5 (short variant); concentration of 0.1-0.5 μM; FIG. 44
Procedure: as §1, §2, §3, §4

[4] = tested on: mouse neural stem cells engineered to express truncated MYB; assay: as above; details: mNSCs expressing truncated MYB (MYBtr); concentration of 0.1-0.5 μM; FIG. 44
Procedure: as §1, §2, §3, §4

In the case of `Cc1nc(Nc2ncc(C(=O)Nc3c(C)cccc3Cl)s2)cc(N2CCN(CCO)CC2)n1` [dasatinib], the “cell death in control cells” value [1] is reported as “without causing significant cell death”, the viability of cells [2] is reported as “specifically compromised the viability” and the viability of cells [3] is reported as “specifically compromised the viability”. For the same compound, the viability of cells [4] was “specifically compromised the viability”.
